In US9109003B2, “Extraction method for Ilex kudingcha C. J. Tseng leaves, total saponins and use thereof” (Peking University, priority 2011, dated 2015):

Tested on: ApoE−/− mice
Experiment: Plasma malondialdehyde (MDA) levels of ApoE−/− mice fed high fat diet
Format: in vivo
Conditions: atorvastatin 50 mg/kg/d

CC(C)c1c(C(=O)Nc2ccccc2)c(-c2ccccc2)c(-c2ccc(F)cc2)n1CC[C@@H](O)C[C@@H](O)CC(=O)O [atorvastatin]
increase in plasma MDA levels compared with group HG (since second week (W2) until end of administration, total saponins 300 mg/kg/d): significantly inhibited | plasma MDA level (sixth week (W6) of administration): 16.5 nmol/L | plasma MDA level at W6 relative to before administration (sixth week (W6)): ~1.5 times
